According to PMC11074327:
No constants are given. Whether binding was seen depends on the method and setting. In cells and extracts the contact can be indirect. Some results given as binding are weak or reduced against the parent protein; the word gives no strength. For some assays here: Tags and fused reporters may be left off the sequences shown. One block for each molecule: values may come before it.

Amino acid sequences for entries named in this document (tags omitted).
UniProt P35240: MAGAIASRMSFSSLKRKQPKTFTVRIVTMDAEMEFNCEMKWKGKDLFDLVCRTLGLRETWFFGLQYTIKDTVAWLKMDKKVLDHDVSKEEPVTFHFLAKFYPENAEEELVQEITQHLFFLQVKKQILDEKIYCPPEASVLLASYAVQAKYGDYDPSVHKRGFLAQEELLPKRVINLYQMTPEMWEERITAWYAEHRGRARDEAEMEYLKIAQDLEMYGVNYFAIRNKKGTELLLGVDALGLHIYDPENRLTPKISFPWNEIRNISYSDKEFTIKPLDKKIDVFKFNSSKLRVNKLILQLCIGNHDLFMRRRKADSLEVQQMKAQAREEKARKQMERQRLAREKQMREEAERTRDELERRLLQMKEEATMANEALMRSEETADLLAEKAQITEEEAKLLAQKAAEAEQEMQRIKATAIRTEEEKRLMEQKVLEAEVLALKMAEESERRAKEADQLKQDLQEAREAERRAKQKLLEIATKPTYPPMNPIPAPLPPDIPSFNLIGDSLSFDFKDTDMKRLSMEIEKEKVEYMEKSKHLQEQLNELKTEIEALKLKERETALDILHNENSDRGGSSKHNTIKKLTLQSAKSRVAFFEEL
UniProt Q7KN62: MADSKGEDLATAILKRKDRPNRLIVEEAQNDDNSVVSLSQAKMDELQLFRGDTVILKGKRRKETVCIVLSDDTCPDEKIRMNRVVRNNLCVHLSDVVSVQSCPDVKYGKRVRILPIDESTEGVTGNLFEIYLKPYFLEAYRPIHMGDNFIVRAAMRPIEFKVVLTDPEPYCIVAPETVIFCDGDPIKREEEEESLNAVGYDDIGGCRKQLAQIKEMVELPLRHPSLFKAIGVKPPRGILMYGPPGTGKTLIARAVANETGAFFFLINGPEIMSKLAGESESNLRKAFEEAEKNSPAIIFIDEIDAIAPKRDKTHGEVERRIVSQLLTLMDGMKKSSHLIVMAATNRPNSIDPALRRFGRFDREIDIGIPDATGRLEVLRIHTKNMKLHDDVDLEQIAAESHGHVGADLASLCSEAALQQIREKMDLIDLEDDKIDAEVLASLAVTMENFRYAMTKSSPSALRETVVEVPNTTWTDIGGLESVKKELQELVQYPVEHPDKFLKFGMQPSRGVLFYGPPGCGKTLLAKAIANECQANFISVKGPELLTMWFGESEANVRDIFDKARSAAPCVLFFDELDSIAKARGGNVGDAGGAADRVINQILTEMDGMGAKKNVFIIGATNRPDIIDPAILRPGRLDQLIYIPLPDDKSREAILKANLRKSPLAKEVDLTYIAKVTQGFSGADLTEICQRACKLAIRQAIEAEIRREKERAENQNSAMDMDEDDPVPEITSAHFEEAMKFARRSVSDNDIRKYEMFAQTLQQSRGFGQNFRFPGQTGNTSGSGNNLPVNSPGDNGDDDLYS

Columns and labels:
Myc-Mer (Drosophila) [1] = molecular target: T1, Myc-Mer (Drosophila) (UniProt Q24564); experiment: co-IP; HEK-293T cells co-transfected with two tagged constructs (PEI), collected 48 h after transfection; IP with anti-Fg or anti-Myc, immunoblot
T1 sequence: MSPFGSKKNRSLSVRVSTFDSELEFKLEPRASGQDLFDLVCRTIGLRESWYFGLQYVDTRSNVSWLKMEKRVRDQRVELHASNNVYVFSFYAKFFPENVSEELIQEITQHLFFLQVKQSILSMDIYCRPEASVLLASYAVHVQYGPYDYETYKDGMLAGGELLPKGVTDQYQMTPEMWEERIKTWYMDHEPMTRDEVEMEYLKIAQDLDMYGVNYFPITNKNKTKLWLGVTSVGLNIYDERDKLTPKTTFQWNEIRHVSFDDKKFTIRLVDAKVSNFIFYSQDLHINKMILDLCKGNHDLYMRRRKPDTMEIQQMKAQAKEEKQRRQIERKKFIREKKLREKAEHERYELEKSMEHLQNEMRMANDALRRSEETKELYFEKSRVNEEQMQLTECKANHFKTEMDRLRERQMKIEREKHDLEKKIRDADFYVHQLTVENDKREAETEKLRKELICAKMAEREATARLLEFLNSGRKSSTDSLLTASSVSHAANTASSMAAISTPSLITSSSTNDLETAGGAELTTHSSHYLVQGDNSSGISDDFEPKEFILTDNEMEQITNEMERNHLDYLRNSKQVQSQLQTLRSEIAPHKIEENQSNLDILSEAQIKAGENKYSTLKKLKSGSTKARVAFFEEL

[2] = molecular target: T2, Myc-Mer-N (aa1-375) (Drosophila) (UniProt Q24564); experiment: as above
T2 sequence: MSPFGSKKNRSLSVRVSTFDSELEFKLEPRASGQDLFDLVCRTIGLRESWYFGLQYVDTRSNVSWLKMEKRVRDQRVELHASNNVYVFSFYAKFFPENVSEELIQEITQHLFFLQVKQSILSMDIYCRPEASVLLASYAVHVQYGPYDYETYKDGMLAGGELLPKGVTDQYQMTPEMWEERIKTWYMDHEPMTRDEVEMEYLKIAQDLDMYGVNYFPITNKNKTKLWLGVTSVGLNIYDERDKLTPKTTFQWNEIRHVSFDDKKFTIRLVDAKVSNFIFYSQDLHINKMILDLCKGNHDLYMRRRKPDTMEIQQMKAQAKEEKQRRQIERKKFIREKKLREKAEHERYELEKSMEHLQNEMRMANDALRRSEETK

[3] = molecular target: T3, The FERM domain in Mer (Drosophila) (UniProt Q24564); experiment: as above
T3 sequence: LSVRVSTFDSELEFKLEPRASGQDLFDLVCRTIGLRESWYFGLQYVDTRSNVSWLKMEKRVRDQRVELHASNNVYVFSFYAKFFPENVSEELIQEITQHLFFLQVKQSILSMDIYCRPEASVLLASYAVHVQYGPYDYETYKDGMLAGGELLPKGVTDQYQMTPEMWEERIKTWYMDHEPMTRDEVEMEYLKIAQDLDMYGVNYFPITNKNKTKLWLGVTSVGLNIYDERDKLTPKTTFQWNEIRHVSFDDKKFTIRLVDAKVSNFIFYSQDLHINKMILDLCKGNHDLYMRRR

Fg-Mer (Drosophila) = molecular target: T4, Fg-Mer (Drosophila) (UniProt Q24564); experiment: co-IP; HEK-293T cells co-transfected with two tagged partners, with or without co-expressed HA-Ter94 (Fig. 7a-c) or HA-Ub-K63 (Fig. 7d-e); IP and immunoblot
T4 sequence: T1 sequence

Myc-Mer (Drosophila) [4] = molecular target: T1, Myc-Mer (Drosophila); experiment: as above
Myc-NF2 (human) = Myc-NF2 (human) (UniProt P35240); experiment: co-IP; HEK-293T cells co-transfected with two tagged constructs (PEI), collected 48 h after transfection; IP with anti-Fg or anti-Myc, immunoblot
Myc-Ex (Drosophila) = molecular target: T5, Myc-Ex (Drosophila) (UniProt Q07436); experiment: co-IP; HEK-293T cells co-transfected with two tagged partners, with or without co-expressed HA-Ter94 (Fig. 7a-c) or HA-Ub-K63 (Fig. 7d-e); IP and immunoblot
T5 sequence: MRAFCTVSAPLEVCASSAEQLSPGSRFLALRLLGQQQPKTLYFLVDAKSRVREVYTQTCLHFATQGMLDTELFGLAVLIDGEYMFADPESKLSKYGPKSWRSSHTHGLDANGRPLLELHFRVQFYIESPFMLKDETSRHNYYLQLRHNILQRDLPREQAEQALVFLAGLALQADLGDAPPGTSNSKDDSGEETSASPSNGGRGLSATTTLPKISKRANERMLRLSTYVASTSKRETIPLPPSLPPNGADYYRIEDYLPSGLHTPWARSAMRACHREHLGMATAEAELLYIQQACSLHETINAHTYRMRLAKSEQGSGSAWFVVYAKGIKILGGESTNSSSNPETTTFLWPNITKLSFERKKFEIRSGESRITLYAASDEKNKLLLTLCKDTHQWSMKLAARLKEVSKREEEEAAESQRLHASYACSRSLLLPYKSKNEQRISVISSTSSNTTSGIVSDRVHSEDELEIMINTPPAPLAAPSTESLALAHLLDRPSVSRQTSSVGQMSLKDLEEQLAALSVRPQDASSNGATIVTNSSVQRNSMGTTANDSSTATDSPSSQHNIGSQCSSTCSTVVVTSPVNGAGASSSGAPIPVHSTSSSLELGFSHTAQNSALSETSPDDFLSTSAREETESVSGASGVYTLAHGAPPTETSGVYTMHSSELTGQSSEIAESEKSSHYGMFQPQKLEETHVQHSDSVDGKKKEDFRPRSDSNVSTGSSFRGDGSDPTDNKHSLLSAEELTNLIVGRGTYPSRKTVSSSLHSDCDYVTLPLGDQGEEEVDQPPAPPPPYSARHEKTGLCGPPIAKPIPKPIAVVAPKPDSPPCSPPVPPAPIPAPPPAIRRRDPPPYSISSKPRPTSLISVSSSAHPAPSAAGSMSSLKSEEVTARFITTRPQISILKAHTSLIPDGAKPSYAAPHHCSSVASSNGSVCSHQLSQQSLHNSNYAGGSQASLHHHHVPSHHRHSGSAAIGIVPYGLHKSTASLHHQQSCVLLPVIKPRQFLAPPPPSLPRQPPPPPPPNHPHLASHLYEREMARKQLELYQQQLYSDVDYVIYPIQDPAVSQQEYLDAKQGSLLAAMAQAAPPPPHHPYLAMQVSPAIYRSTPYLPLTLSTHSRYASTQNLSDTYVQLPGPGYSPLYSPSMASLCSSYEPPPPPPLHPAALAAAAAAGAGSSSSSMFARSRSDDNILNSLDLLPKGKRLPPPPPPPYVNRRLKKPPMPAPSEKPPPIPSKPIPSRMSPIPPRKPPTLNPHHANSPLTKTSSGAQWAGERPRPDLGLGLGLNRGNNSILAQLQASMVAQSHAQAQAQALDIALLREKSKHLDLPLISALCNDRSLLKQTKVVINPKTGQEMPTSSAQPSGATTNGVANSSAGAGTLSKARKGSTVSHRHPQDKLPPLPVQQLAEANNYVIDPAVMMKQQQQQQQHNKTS

Molecule: HA-Ter94 (from UniProt Q7KN62 1-801)
binding (Fg-Mer (Drosophila)): binds
binding (Myc-Mer (Drosophila) [4]): binds

Molecule: Fg-hVCP (from UniProt P55072 1-806)
binding (Myc-Mer (Drosophila) [1]): binds
binding (Myc-NF2 (human)): binds

Next, values leading:

binding (Myc-Mer (Drosophila) [1]): binds
binding [2]: binds
binding [3]: binds
Molecule: Fg-Ter94 (from UniProt Q7KN62 1-801)

binding (Myc-Ex (Drosophila)): binds
B1: Fg-Mer (protein, UniProt Q24564 1-635)
chain: T1 sequence
